In patent US20040091486A1:
No constants are given. Whether binding was seen depends on the method and setting. Some binding calls cover weakened binding; strength is not graded here.

Protein sequences, listed by entry. Tags and fused reporters are not part of them. Residues count along the entry.
UniProt P29317, residues 24-537: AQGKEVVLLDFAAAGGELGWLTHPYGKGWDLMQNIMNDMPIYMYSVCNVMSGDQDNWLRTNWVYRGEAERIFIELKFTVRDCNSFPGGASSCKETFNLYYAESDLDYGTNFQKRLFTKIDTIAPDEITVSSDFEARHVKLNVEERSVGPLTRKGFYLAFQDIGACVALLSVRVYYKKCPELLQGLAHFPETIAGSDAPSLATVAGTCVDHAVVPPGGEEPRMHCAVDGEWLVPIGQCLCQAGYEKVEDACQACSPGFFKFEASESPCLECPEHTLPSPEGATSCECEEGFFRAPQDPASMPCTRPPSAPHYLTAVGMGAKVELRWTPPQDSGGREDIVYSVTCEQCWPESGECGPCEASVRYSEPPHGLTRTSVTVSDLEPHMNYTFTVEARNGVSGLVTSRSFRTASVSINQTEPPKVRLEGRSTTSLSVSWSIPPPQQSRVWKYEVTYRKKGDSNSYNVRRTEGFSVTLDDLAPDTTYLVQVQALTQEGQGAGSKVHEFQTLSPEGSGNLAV

Biological target: EphA2-Fc, fusion protein consisting of the extracellular domain of EphA2 linked to human IgG1 constant region (human) (UniProt P29317)
Assay: ELISA, biotinylated EA2 on EphA2-Fc captured by immobilized Ephrin A1-Fc

- binding: binds
B1: EA2 anti-EphA2 monoclonal antibody (antibody, V domains shown)
VH: DVKLVESGGGLVKPGGSLKLSCAASGFTFSSYTMSWVRQTPEKRLEWVATISSGGTYTYYPDSVKGRFTISRDNAKNTLYLQMSSLKSEDTAMYYCTREAIFTYWGQGTLVTVSA
VL: DIKMTQSPSSMYASLGERVTITCKASQDINNYLSWFQQKPGKSPKTLIYRANRLVDGVPSRFSGSGSGQDYSLTISSLEYEDMGIYYCLKYDEFPYTFGGGTKLEIK
